At least one structure is not confirmed: it was looked up by name or label, or the drawing left a doubt.
Tested on: B16-F1 melanocytes
Assay: Melanin synthesis in melanocytes, melanin colorimetric competitive ELISA
Assay type: cell-based
Conditions: colorimetric quantification; ZDBL at 200 μg/ml

In the case of `CCCCCCc1ccc(O)cc1O` [Hexylresorcinol], the “Melanin-inhibitory activity (in words)” value is reported as “mild but statistically significant inhibitory activity”.

— patent publication US12171852B1, “Composition and methods for regulating melanogenesis” (Sytheon Ltd, priority 2023, dated 2024)
